Measurements reported in PubChem BioAssay AID602196 (INSERM, 2012)
The deposit covers about 23,000 reagents; this is a part drawn at random. 455 of all reagents (2%) were called active. 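Active includes both protection and sensitisation; some change values fall well beyond the stated -50 to +50 range.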 Entries without a mark were called inactive. Not all columns of the deposit are shown. The record does not give: the amount of reagent.

Test: 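Genes whose knock-down alters cisplatin killing of lung cancer cells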
Cell system: human A549 lung cancer cells
Knock-down reagent: siRNA pair against human genes
Time to read-out: 48 h transfection before cisplatin; time from cisplatin to read-out not stated
Treatment: cisplatin at a dose killing half of control-siRNA cells; exact dose and duration not given
Measured: 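Cisplatin cell death as a shift from the 50% death seen with control siRNA; siRNAs toxic or growth-blocking alone scored 0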
Scale: two-siRNA summed score (-2 to +2): higher = both siRNAs protect from cisplatin killing; -2 means both sensitise
Active means: 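Each siRNA scores 0 if harmful alone by LDH or WST-1, otherwise +1 if it reduces and -1 if it increases cisplatin killing; a gene is active when both siRNAs agree (sum +2 or -2)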
Calls: active = both siRNAs shift cisplatin killing the same way; inactive = no consistent shift, or siRNA harmful alone

Silencing of PRSS57 [SID131522094] gave: two-siRNA summed score (-2 to +2) = 1.
Knock-down of LOC440137 [SID131515466] gave: two-siRNA summed score (-2 to +2) = 0.
LOC442469 [SID131518527] showed two-siRNA summed score (-2 to +2) = 0.
With knock-down of LOC131572 [SID131502280], the screen gave two-siRNA summed score (-2 to +2) = -1.
For LSM5 [SID131505588], the values are two-siRNA summed score (-2 to +2) = 0.
After knock-down of ADCY2 [SID131522269], the record shows two-siRNA summed score (-2 to +2) = 1.
After knock-down of GUCA1B [SID131500776] the results were two-siRNA summed score (-2 to +2) = -1.
Depletion of PEF1 [SID131512921] gave: two-siRNA summed score (-2 to +2) = 0.
ZMYM3 [SID131502034] scored two-siRNA summed score (-2 to +2) = -1.
LOC440996 [SID131518637] gave two-siRNA summed score (-2 to +2) = 0.
FANCE [SID131508708] gave two-siRNA summed score (-2 to +2) = 0.
After knock-down of LOC388959 [SID131515360], the screen gave two-siRNA summed score (-2 to +2) = 0.
Depletion of LRP6 [SID131500567] gave: two-siRNA summed score (-2 to +2) = -1.
Silencing of EEF2K [SID131514373] gave: two-siRNA summed score (-2 to +2) = 0.
With knock-down of PSMA7 [SID131506819] the results were two-siRNA summed score (-2 to +2) = 0.
Against CDKN3 [SID131513033] the deposit lists two-siRNA summed score (-2 to +2) = 0.
For LOC440586 [SID131521066], the values are two-siRNA summed score (-2 to +2) = 1.
LOC402148 [SID131519710] gave two-siRNA summed score (-2 to +2) = 1.
With knock-down of SERPINB11 [SID131513933] the results were two-siRNA summed score (-2 to +2) = 0.
Knock-down of SCARB2 [SID131502110] came out at: two-siRNA summed score (-2 to +2) = -1.
With knock-down of LOC389269 [SID131516732], the record shows two-siRNA summed score (-2 to +2) = 0.
MAGEC3 [SID131518634] showed two-siRNA summed score (-2 to +2) = 0.
BECN1 [SID131511520] gave two-siRNA summed score (-2 to +2) = 0.
For AGBL1 [SID131516847], the values are two-siRNA summed score (-2 to +2) = 0.
Depletion of MINK1 [SID131520833] resulted in: two-siRNA summed score (-2 to +2) = 1.
Depletion of ZNF345 [SID131503931] resulted in: two-siRNA summed score (-2 to +2) = 0.
TMEM201 [SID131519610] gave two-siRNA summed score (-2 to +2) = 1.
After knock-down of RMDN3 [SID131509224] the results were two-siRNA summed score (-2 to +2) = 0.
MTPAP [SID131513010] scored two-siRNA summed score (-2 to +2) = 0.
Silencing of LOC149501 [SID131520953] gave: two-siRNA summed score (-2 to +2) = 1.
Silencing of LOC399951 [SID131506018] came out at: two-siRNA summed score (-2 to +2) = 0.

Reformatted: entries from further up
| gene | PubChem SID | two-siRNA summed score (-2 to +2) |
| --- | --- | --- |
| LOC402148 | SID131519710 | 1 |
| SERPINB11 | SID131513933 | 0 |
| SCARB2 | SID131502110 | -1 |
| LOC389269 | SID131516732 | 0 |
